In the supplement of paper PMC6411743:
± gives the standard deviation of the averaged measurements. The list shows a part of the results, in another mix than the full data.

Protein sequences, listed by entry. Tags and fused reporters are not part of them. Lines headed by an entry give the natural chain unless they say otherwise; changes in a name come on top.
UniProt P51784: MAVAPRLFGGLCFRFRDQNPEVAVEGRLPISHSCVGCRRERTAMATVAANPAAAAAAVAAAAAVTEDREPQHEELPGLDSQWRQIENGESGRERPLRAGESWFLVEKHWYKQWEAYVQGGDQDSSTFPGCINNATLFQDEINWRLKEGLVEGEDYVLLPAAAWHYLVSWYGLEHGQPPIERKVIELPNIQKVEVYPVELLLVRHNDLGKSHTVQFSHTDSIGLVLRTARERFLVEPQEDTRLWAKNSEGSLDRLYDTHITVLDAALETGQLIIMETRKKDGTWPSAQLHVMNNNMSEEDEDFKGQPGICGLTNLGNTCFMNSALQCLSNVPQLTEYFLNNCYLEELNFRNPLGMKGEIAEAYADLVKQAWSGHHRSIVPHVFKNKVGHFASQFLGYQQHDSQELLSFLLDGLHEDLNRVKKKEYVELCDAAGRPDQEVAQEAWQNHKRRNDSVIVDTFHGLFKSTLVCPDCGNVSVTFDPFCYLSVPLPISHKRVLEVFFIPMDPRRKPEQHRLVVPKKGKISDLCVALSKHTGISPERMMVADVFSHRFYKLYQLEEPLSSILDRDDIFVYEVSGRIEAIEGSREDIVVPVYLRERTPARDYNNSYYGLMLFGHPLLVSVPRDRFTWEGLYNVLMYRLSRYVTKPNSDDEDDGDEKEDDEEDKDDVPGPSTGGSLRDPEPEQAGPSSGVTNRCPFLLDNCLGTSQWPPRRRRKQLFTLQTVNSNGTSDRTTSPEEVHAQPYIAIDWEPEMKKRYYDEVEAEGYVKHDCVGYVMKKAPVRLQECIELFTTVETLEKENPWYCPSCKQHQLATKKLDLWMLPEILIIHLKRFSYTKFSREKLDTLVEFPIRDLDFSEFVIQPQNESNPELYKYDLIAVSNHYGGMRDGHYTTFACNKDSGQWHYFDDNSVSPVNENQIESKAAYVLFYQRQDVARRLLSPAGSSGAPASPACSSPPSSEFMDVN
UniProt Q6IQ23: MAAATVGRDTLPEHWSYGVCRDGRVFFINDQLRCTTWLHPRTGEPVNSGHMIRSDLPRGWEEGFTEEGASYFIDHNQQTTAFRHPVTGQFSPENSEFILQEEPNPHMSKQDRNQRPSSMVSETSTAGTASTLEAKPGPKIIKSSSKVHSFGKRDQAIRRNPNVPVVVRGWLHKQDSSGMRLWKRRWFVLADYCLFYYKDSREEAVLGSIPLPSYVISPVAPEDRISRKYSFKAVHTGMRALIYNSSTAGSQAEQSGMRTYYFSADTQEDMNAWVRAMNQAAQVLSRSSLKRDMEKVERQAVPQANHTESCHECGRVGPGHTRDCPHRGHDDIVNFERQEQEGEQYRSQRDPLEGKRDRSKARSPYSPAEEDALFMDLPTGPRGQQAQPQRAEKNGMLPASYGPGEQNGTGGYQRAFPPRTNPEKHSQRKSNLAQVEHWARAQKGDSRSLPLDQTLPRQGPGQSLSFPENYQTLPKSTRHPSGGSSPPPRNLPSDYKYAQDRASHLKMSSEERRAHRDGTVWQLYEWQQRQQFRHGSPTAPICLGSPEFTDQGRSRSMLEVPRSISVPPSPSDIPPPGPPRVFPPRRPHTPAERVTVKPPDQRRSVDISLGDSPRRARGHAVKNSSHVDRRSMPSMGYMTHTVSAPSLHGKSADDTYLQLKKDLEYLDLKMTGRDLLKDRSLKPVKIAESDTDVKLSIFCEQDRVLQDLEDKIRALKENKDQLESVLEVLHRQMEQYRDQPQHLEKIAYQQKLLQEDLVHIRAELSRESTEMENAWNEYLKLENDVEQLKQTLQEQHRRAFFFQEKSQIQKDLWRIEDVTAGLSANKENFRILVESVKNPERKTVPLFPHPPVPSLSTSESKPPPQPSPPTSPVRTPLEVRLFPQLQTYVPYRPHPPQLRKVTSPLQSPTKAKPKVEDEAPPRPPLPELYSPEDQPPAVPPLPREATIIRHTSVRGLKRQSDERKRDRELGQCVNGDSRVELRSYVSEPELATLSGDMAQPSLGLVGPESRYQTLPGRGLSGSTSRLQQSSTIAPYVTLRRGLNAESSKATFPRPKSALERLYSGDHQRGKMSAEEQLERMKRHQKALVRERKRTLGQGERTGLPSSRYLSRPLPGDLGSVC
UniProt Q9UQV4: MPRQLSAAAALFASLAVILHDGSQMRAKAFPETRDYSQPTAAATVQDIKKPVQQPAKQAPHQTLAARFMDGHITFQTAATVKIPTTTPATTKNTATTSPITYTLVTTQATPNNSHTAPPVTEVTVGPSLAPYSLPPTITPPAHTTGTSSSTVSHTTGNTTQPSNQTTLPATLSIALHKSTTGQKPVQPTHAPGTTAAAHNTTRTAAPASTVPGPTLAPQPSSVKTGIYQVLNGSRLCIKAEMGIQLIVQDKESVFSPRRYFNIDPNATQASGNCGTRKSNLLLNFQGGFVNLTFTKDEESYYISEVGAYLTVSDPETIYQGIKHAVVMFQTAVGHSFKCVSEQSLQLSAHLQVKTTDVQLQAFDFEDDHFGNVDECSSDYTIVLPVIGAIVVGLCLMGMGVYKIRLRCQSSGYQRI
UniProt O15014: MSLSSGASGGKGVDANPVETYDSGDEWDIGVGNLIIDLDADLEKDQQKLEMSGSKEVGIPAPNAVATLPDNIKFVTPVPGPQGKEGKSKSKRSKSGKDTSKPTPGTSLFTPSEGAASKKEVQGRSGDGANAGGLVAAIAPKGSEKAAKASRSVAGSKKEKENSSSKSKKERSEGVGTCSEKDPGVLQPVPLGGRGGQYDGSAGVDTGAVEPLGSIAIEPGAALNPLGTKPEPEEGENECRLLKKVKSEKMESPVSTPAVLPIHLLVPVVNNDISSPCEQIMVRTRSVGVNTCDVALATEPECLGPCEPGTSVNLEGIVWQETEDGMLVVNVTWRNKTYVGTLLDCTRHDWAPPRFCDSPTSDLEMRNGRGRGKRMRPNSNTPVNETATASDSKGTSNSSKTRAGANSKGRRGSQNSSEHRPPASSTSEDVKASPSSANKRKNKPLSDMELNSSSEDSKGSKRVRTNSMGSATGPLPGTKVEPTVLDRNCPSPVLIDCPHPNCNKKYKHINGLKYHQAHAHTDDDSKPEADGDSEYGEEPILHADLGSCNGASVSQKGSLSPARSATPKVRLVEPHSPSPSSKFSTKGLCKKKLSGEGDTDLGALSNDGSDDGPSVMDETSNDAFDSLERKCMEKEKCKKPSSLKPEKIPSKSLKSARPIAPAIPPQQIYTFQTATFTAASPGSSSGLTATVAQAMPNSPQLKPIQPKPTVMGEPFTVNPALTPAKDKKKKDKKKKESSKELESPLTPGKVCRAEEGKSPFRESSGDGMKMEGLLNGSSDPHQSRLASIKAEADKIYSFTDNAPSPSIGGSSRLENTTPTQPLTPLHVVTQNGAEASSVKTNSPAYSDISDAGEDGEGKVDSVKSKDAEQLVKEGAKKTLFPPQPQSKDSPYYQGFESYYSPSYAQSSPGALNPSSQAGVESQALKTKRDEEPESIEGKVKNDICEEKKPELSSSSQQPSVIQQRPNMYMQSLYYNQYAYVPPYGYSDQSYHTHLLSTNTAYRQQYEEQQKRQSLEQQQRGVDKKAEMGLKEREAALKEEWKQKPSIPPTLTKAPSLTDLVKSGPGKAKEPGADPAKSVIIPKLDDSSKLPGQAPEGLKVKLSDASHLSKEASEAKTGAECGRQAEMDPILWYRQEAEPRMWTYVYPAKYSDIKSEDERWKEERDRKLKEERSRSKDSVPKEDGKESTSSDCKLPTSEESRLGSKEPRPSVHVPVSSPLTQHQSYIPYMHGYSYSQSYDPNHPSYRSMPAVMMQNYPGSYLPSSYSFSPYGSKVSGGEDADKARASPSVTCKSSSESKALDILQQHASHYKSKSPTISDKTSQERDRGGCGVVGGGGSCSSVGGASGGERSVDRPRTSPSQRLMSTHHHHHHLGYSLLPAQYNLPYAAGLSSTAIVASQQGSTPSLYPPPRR
UniProt Q8NHQ9: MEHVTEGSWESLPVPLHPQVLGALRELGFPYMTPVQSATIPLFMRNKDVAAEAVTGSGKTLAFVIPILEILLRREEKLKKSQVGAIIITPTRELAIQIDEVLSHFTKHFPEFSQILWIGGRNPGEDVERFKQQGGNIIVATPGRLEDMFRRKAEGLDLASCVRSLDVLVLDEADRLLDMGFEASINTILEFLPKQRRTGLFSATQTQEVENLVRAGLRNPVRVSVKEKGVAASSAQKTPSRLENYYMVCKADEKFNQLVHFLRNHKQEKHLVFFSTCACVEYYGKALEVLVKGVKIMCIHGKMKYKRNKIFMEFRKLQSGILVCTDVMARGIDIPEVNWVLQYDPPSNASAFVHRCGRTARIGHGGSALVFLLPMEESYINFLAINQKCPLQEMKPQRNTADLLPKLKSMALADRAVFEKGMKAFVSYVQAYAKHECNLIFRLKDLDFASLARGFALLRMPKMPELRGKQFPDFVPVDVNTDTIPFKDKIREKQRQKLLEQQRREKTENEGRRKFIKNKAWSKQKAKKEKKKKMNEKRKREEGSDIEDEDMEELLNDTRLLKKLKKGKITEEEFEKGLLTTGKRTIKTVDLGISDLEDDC
UniProt P09488: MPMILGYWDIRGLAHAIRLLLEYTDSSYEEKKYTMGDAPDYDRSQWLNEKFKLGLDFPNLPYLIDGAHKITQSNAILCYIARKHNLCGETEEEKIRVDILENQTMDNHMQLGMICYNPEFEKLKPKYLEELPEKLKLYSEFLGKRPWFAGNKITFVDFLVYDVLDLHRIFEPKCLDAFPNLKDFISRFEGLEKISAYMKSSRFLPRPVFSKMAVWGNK
UniProt P61421, whole entry: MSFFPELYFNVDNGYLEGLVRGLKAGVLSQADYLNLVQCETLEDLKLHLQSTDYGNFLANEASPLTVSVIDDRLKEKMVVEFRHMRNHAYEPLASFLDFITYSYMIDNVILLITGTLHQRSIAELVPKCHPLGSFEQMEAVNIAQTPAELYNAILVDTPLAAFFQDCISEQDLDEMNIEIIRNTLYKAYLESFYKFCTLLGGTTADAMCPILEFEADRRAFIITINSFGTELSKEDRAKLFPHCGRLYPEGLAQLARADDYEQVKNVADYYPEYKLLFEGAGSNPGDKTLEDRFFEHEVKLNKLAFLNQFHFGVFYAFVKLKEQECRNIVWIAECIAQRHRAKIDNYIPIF
UniProt Q6XQN6: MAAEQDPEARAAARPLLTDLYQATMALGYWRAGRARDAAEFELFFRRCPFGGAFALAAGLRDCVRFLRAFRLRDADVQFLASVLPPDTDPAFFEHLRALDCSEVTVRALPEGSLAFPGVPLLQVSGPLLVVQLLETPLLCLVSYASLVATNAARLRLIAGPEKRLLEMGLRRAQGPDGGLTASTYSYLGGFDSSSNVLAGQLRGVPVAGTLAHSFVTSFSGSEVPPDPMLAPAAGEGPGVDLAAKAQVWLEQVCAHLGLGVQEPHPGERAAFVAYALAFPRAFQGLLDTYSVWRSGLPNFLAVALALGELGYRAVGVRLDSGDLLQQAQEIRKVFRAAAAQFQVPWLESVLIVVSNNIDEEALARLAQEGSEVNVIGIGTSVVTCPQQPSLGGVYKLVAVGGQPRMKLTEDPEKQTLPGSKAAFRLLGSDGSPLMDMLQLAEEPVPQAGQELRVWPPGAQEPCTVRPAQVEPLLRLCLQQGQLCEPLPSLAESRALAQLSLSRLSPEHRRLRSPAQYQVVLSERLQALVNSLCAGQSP
UniProt Q96A26: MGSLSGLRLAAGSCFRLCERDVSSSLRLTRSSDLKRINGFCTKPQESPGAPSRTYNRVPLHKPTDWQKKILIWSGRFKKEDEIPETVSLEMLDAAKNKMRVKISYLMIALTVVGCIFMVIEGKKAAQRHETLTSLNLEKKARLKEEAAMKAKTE
UniProt P04216: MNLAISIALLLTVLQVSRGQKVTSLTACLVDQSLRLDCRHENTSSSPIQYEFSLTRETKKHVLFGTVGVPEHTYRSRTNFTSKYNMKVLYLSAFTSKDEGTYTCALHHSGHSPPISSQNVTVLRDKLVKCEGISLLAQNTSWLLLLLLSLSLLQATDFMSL
UniProt Q5VW38: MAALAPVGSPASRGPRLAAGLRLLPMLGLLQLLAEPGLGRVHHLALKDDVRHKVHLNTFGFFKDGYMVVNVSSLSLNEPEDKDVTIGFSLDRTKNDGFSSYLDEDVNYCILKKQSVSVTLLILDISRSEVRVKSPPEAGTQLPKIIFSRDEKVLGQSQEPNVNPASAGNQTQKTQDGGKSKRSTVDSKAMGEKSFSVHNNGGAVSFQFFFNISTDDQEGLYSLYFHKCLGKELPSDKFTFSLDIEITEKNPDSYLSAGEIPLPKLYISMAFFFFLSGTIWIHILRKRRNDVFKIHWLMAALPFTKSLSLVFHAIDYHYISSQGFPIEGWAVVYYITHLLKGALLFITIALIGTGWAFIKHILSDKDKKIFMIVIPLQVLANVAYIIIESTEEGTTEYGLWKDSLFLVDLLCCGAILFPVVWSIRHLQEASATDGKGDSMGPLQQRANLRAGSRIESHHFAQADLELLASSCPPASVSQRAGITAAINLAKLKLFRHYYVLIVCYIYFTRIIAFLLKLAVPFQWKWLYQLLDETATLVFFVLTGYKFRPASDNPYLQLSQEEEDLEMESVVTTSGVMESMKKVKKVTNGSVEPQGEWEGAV

Compound: Nc1ncnc2c1ncn2[C@@H]1O[C@H](COP(=O)(O)OP(=O)(O)OP(=O)(O)O)[C@@H](O)[C@H]1O [adenosine triphosphate]
Assay: NP40-soluble protein abundance relative to vehicle (solubility fold change) (ratio); higher = more soluble protein in presence of ATP
In short: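 Jurkat crude lysate (Dounce-homogenised) was treated with eight concentrations from 0.1 to 10 mM for 10 min at room temperature, then 3 min at 37 °C. It was solubilised with 0.8% NP40 and benzonase (60 min, 4 °C) and ultracentrifuged, and the supernatant was TMT-labelled for LC-MS/MS. Intensities were vsn-normalised, and the value is the fold change against the NP40-processed vehicle per replicate, from three independent experiments.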

Row | Target | NP40-soluble protein abundance (concentration: 1mM) | NP40-soluble protein abundance (concentration: 2mM) | NP40-soluble protein abundance (concentration: 4mM) | NP40-soluble protein abundance (concentration: 6mM) | NP40-soluble protein abundance (concentration: 8mM) | NP40-soluble protein abundance (concentration: 10mM)
1 | G3XAH6 and related entries (UniProt P51003) | 0.959 ± 0.017 | 0.966 ± 0.036 | 0.94 ± 0.018 | 0.951 ± 0.04 | 0.9271 ± 0.0066 | 0.9511 ± 0.007
2 | F5H8H2 and related entries (UniProt Q03426) | 1.03 ± 0.083 | 1.03 ± 0.065 | 1.03 ± 0.047 | 1 ± 0.082 | 1.03 ± 0.1 | 1.01 ± 0.061
3 | F8VSB6 and related entries (UniProt Q9H4P4) | 1.02 ± 0.048 | 1 ± 0.062 | 0.967 ± 0.11 | 1.11 ± 0.085 | 0.994 ± 0.04 | 1.081 ± 0.0083
4 | E9PGT1 (UniProt Q15631) | 1.02 ± 0.074 | 0.953 ± 0.048 | 0.946 ± 0.052 | 0.912 ± 0.058 | 0.988 ± 0.057 | 0.9 ± 0.049
5 | E9PE19 and related entries (UniProt Q12830) | 1.02 ± 0.034 | 1.04 ± 0.039 | 1.06 ± 0.05 | 1.11 ± 0.12 | 1.07 ± 0.066 | 1.11 ± 0.055
6 | G5E9A6 (UniProt P51784) | 1.06 ± 0.092 | 1.02 ± 0.073 | 1 ± 0.074 | 0.967 ± 0.11 | 1.03 ± 0.061 | 0.986 ± 0.064
7 | E9PKC0 and related entries (UniProt Q6IQ23) | 1.22 ± 0.077 | 1.26 ± 0.051 | 1.27 ± 0.077 | 1.39 ± 0.076 | 1.33 ± 0.056 | 1.38 ± 0.09
8 | F5H5D3 and related entries (UniProt Q9BQE3) | 1.01 ± 0.13 | 0.943 ± 0.12 | 0.946 ± 0.081 | 0.872 ± 0.19 | 0.991 ± 0.075 | 0.762 ± 0.45
9 | E9PPG8 and related entries (UniProt Q53FT3) | 1.02 ± 0.15 | 1.02 ± 0.16 | 0.999 ± 0.14 | 0.979 ± 0.15 | 1.01 ± 0.11 | 0.975 ± 0.064
10 | E9PMJ2 and related entries (UniProt Q9BPY3) | 0.978 ± 0.061 | 0.96 ± 0.037 | 0.968 ± 0.04 | 0.931 ± 0.045 | 0.944 ± 0.021 | 0.948 ± 0.043
11 | E7ETP9 and related entries (UniProt Q9UQV4) | 0.9 ± 0.048 | 0.94 ± 0.015 | 0.923 ± 0.02 | 0.937 ± 0.027 | 0.87 ± 0.028 | 0.841 ± 0.074
12 | E7ETU7 and related entries (UniProt P09001) | 1.07 ± 0.033 | 0.908 ± 0.082 | 0.904 ± 0.13 | 0.873 ± 0.26 | 0.896 ± 0.18 | 0.855 ± 0.16
13 | G3V1P3 and related entries (UniProt Q969J3+G3V1P3) | 0.956 ± 0.015 | 0.962 ± 0.022 | 0.941 ± 0.015 | 0.919 ± 0.072 | 0.942 ± 0.025 | 0.917 ± 0.067
14 | E9PJZ7 and related entries (UniProt Q13136) | 0.972 ± 0.065 | 0.967 ± 0.044 | 0.979 ± 0.017 | 1.01 ± 0.056 | 0.957 ± 0.03 | 0.971 ± 0.043
15 | E7EX17 and related entries (UniProt P23588) | 0.982 ± 0.072 | 0.989 ± 0.04 | 1.01 ± 0.037 | 1.1 ± 0.051 | 1.035 ± 0.0085 | 1.05 ± 0.021
16 | E9PF16 and related entries (UniProt Q96CM8) | 0.989 ± 0.026 | 0.991 ± 0.043 | 0.974 ± 0.031 | 0.96 ± 0.066 | 0.983 ± 0.029 | 0.964 ± 0.059

Row | Target | NP40-soluble protein abundance (concentration: 1mM) | NP40-soluble protein abundance (concentration: 2mM) | NP40-soluble protein abundance (concentration: 4mM) | NP40-soluble protein abundance (concentration: 6mM) | NP40-soluble protein abundance (concentration: 8mM) | NP40-soluble protein abundance (concentration: 10mM)
17 | G3XAN4 and related entries (UniProt Q15629) | 1.02 ± 0.049 | 1.06 ± 0.051 | 1.05 ± 0.043 | 1.09 ± 0.034 | 1.04 ± 0.036 | 1.01 ± 0.039
18 | E7ERY8 and related entries (UniProt O15014) | 1.03 ± 0.065 | 1.02 ± 0.058 | 1.04 ± 0.07 | 1.08 ± 0.078 | 1.04 ± 0.039 | 1.08 ± 0.049
19 | E9PF19 and related entries (UniProt Q9Y4P3) | 1.15 ± 0.045 | 1.23 ± 0.016 | 1.28 ± 0.028 | 1.3 ± 0.092 | 1.36 ± 0.026 | 1.41 ± 0.039
20 | E9PN30 and related entries (UniProt Q9BQE4) | 1.02 ± 0.087 | 1 ± 0.12 | 1.04 ± 0.18 | 0.895 ± 0.13 | 1.06 ± 0.089 | 0.892 ± 0.067
21 | F5H5U2 and related entries (UniProt Q8NHQ9) | 1.05 ± 0.048 | 1.05 ± 0.024 | 1.13 ± 0.088 | 1.18 ± 0.033 | 1.33 ± 0.13 | 1.54 ± 0.038
22 | E7EWW9 and related entries (UniProt P09488) | 0.856 ± 0.17 | 0.89 ± 0.1 | 0.854 ± 0.059 | 0.768 ± 0.19 | 0.838 ± 0.056 | 0.848 ± 0.071
23 | F5GYQ1 and related entries (UniProt P61421) | 1.07 ± 0.12 | 0.997 ± 0.087 | 0.985 ± 0.11 | 0.936 ± 0.071 | 1.02 ± 0.07 | 0.961 ± 0.069
24 | F5H7T0 and related entries (UniProt Q96S38) | 1.11 ± 0.048 | 1.1 ± 0.077 | 0.971 ± 0.11 | 1.07 ± 0.093 | 0.951 ± 0.089 | 1.02 ± 0.039
25 | F8VX04 and related entries (UniProt Q9H2H9) | 0.844 ± 0.032 | 0.892 ± 0.071 | 0.838 ± 0.02 | 0.85 ± 0.03 | 0.805 ± 0.039 | 0.8 ± 0.056
26 | G5E977 and related entries (UniProt Q6XQN6) | 0.99 ± 0.016 | 0.978 ± 0.04 | 0.962 ± 0.08 | 0.928 ± 0.035 | 0.953 ± 0.073 | 0.958 ± 0.047
27 | F8W7Q4 and related entries (UniProt Q96A26) | 0.928 ± 0.18 | 0.928 ± 0.2 | 0.923 ± 0.18 | 0.887 ± 0.21 | 0.832 ± 0.092 | 0.854 ± 0.17
28 | F5GYX3 and related entries (UniProt O75326) | 0.874 ± 0.061 | 0.822 ± 0.068 | 0.85 ± 0.034 | 0.876 ± 0.064 | 0.838 ± 0.087 | 0.888 ± 0.03
29 | F8W950 and related entries (UniProt Q13155) | 0.977 ± 0.032 | 0.936 ± 0.015 | 0.915 ± 0.024 | 0.946 ± 0.13 | 0.955 ± 0.074 | 0.939 ± 0.051
30 | F5GZS6 and related entries (UniProt P08195) | 0.933 ± 0.056 | 0.922 ± 0.023 | 0.902 ± 0.054 | 0.924 ± 0.034 | 0.883 ± 0.022 | 0.8795 ± 0.0041
31 | E9PIM6 and related entries (UniProt P04216) | 0.932 ± 0.027 | 1.01 ± 0.02 | 0.961 ± 0.025 | 0.951 ± 0.096 | 0.874 ± 0.028 | 0.918 ± 0.13
32 | G5E994 and related entries (UniProt Q5VW38) | 0.899 ± 0.074 | 1.08 ± 0.11 | 0.931 ± 0.059 | 1.05 ± 0.13 | 0.913 ± 0.11 | 0.925 ± 0.12

Exported as tab-separated lines: part of the list above
Row	Target	NP40-soluble protein abundance (concentration: 1mM)	NP40-soluble protein abundance (concentration: 2mM)	NP40-soluble protein abundance (concentration: 4mM)	NP40-soluble protein abundance (concentration: 6mM)	NP40-soluble protein abundance (concentration: 8mM)	NP40-soluble protein abundance (concentration: 10mM)
19	E9PF19 and related entries (UniProt Q9Y4P3)	1.15 ± 0.045	1.23 ± 0.016	1.28 ± 0.028	1.3 ± 0.092	1.36 ± 0.026	1.41 ± 0.039
20	E9PN30 and related entries (UniProt Q9BQE4)	1.02 ± 0.087	1 ± 0.12	1.04 ± 0.18	0.895 ± 0.13	1.06 ± 0.089	0.892 ± 0.067
21	F5H5U2 and related entries (UniProt Q8NHQ9)	1.05 ± 0.048	1.05 ± 0.024	1.13 ± 0.088	1.18 ± 0.033	1.33 ± 0.13	1.54 ± 0.038
22	E7EWW9 and related entries (UniProt P09488)	0.856 ± 0.17	0.89 ± 0.1	0.854 ± 0.059	0.768 ± 0.19	0.838 ± 0.056	0.848 ± 0.071
23	F5GYQ1 and related entries (UniProt P61421)	1.07 ± 0.12	0.997 ± 0.087	0.985 ± 0.11	0.936 ± 0.071	1.02 ± 0.07	0.961 ± 0.069
24	F5H7T0 and related entries (UniProt Q96S38)	1.11 ± 0.048	1.1 ± 0.077	0.971 ± 0.11	1.07 ± 0.093	0.951 ± 0.089	1.02 ± 0.039
25	F8VX04 and related entries (UniProt Q9H2H9)	0.844 ± 0.032	0.892 ± 0.071	0.838 ± 0.02	0.85 ± 0.03	0.805 ± 0.039	0.8 ± 0.056
26	G5E977 and related entries (UniProt Q6XQN6)	0.99 ± 0.016	0.978 ± 0.04	0.962 ± 0.08	0.928 ± 0.035	0.953 ± 0.073	0.958 ± 0.047
